Source: PMC11383180
No constants are given. Whether binding was seen depends on the method and setting. Binding seen in cells or lysates may run through a third protein. Some entries that bind do so weakly or less than the wild type.

Amino acid sequences for entries named in this document (tags omitted). A change or cut given only in a name is not applied to a line headed by its entry. Chains listed by the source or under a name are the forms on record and can include a tag or linker.
UniProt Q96LD4: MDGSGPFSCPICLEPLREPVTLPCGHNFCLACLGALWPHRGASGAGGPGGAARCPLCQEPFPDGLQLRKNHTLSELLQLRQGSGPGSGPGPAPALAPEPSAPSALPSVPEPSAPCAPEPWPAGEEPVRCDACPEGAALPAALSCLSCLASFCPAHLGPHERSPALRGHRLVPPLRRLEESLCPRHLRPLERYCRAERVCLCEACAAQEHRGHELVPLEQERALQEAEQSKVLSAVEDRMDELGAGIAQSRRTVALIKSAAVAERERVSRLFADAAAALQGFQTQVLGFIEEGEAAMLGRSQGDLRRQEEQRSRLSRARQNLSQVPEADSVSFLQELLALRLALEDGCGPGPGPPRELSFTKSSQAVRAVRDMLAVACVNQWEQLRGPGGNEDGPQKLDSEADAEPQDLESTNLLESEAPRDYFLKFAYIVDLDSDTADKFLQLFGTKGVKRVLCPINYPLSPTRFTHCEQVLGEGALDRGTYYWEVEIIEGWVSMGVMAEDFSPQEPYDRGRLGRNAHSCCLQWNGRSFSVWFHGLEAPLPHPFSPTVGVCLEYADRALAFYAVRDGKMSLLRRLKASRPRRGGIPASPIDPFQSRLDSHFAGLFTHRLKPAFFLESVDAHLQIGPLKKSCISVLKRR
in vitro-translated mutant ADAM17 (p.D647N) (P78536-1, form named): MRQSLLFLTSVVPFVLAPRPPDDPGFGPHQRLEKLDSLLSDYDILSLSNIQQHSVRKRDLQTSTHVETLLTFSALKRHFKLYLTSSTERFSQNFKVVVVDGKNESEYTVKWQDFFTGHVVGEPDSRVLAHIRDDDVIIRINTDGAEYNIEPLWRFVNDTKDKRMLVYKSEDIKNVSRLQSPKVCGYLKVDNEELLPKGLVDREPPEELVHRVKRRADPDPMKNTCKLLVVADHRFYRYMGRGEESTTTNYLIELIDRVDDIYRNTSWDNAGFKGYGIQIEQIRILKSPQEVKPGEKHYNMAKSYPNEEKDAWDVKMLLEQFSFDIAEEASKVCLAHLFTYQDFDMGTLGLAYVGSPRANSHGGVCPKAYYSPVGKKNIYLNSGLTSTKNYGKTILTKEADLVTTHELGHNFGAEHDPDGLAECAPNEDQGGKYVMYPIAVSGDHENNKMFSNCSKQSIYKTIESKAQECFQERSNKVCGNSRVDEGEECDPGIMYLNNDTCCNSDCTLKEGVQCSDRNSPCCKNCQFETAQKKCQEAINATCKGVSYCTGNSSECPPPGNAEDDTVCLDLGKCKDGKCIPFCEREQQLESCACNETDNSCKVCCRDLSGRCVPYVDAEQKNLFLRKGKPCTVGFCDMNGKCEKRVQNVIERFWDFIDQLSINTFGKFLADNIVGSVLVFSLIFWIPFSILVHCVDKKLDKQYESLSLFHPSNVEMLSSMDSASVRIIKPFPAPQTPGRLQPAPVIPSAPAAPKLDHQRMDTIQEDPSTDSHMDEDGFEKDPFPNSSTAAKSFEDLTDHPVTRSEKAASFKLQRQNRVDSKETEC

Target: His-tagged TRIM47 (UniProt Q96LD4)
Assay: pull-down; His-tagged TRIM47 purified on Ni-NTA beads, incubated with in vitro-translated wild-type or mutant ADAM17 overnight at 4°C; washed with ice-cold buffer, eluted from the beads, immunoblot; only the target purified

Row | Substance | binding
1 | in vitro-translated mutant ADAM17 (p.D647N) (from UniProt P78536-1 1-824) | binds
2 | in vitro-translated wild-type ADAM17 (from UniProt P78536-1 1-824) | binds
